Laboratory results as given in paper PMC3816220.
These are yes or no findings as the source states them, for the method shown. In cells and extracts the contact can be indirect. Some entries that bind do so weakly or less than the wild type. For some assays here: Tags and fused reporters may be left off the sequences shown.

Protein sequences, listed by entry. Tags and fused reporters are not part of them.
UniProt P31751: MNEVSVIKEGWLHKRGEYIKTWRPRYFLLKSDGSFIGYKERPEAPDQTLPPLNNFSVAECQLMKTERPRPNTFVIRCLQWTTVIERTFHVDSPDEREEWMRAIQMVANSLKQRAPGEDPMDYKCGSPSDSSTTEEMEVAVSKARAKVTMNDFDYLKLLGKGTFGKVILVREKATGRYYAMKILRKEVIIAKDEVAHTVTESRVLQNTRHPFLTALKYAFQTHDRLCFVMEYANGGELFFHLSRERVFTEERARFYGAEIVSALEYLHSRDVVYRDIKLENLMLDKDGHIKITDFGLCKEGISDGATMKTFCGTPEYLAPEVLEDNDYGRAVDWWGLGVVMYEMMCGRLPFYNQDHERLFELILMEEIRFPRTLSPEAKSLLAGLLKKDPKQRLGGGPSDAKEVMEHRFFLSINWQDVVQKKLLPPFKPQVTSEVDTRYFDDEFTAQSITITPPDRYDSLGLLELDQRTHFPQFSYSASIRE

B1: TCL1b (construct of the dimer co-immunoprecipitation not told) (protein, UniProt O95988 1-128)
chain: MASEASVRLGVPPGRLWIQRPGIYEDEEGRTWVTVVVRFNPSRREWARASQGSRYEPSITVHLWQMAVHTRELLSSGQMPFSQLPAVWQLYPGRKYRAADSSFWEIADHGQIDSMEQLVLTYQPERKD

How the values were obtained:
[1] = molecular target: T1, Flag-tagged TCL1b (human) (UniProt O95988); experiment: co-IP; 293T cells co-transfected with pUC-CAGGS-Flag-TCL1b and pCMV6-HA-Akt2, lysed 72 h later in Brij 97 lysis buffer; immunoprecipitated with anti-HA or anti-Flag, anti-mouse IgG as control; blotted with anti-HA-HRP or anti-Flag-HRP
T1 sequence: B1 chain

[2] = molecular target: TCL1b (construct of the dimer co-immunoprecipitation not told) (human) (UniProt O95988); experiment: co-IP; told only in the discussion, no figure and no details (data not shown)

Molecule | binding [1] | binding [2]
HA-tagged Akt2 (from UniProt P31751 1-481) (enzyme) | binds | –
B1 | – | binds
